The supplement of paper PMC10060354, “Discovery of a small molecule ligand of FRS2 that inhibits invasion and tumor growth” (Cellular Oncology, 2022)
Single values are uncertain, as repeats are few or missing.

The chains behind the UniProt entries cited, without tags or fusion partners. Where a name states a change or a piece, a line headed by the entry shows the natural chain unless it says otherwise.
UniProt Q96C23: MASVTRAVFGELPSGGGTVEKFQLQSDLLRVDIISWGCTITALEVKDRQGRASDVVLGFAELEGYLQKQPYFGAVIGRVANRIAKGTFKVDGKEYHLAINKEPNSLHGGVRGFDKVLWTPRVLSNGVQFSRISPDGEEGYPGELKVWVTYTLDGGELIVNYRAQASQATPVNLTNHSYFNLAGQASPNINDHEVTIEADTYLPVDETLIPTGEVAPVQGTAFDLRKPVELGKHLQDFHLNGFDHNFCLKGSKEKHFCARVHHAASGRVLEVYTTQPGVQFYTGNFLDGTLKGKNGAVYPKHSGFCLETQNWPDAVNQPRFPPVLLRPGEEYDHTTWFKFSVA
UniProt Q92791: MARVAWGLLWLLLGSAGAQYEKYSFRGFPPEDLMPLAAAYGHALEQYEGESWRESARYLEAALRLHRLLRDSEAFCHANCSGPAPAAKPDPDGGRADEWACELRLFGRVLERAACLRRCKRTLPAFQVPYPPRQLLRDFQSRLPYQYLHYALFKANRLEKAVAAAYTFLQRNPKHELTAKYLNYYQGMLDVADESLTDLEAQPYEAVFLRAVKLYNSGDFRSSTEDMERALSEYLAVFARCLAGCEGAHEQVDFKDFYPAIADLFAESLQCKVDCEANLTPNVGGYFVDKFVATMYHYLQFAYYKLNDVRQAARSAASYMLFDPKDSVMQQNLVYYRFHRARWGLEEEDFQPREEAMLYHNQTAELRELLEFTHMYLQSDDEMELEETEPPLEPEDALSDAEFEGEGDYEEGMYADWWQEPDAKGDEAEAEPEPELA
UniProt Q5PRF9: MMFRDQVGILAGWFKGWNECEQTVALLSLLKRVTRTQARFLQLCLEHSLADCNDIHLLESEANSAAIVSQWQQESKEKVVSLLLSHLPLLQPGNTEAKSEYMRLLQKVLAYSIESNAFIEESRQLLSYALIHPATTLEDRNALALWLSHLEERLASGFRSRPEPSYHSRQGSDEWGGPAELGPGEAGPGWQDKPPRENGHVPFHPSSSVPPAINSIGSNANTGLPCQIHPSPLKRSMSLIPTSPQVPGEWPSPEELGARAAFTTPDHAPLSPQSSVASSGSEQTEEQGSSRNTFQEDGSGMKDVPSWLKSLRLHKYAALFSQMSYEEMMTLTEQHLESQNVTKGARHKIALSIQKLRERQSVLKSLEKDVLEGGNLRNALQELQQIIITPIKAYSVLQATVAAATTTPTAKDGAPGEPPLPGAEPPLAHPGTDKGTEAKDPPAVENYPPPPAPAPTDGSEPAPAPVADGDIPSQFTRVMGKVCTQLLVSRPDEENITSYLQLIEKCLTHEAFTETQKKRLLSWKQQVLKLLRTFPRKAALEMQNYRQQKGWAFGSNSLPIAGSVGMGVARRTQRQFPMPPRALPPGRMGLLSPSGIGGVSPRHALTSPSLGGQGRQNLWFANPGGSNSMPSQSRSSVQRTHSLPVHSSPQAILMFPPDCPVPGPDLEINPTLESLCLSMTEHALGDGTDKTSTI
UniProt Q92870: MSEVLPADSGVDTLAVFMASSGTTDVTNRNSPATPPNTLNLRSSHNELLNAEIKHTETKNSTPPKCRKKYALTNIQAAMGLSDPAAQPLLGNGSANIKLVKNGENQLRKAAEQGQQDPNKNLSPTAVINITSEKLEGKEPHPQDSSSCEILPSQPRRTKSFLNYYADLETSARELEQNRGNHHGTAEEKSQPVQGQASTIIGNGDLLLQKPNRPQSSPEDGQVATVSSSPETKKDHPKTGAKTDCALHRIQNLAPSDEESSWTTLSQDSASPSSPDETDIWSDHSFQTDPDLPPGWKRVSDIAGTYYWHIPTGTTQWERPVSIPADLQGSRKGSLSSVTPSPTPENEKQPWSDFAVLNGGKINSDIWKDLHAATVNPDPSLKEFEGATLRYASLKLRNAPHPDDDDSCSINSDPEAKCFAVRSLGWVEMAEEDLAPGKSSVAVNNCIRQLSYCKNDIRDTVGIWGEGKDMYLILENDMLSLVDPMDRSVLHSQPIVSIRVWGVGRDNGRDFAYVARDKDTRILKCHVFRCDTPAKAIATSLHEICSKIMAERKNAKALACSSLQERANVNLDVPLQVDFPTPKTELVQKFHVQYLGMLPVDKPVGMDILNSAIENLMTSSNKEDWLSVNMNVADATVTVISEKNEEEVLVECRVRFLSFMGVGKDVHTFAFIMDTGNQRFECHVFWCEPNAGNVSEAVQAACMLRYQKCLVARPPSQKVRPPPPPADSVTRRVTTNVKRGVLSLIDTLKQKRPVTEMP
UniProt P35813: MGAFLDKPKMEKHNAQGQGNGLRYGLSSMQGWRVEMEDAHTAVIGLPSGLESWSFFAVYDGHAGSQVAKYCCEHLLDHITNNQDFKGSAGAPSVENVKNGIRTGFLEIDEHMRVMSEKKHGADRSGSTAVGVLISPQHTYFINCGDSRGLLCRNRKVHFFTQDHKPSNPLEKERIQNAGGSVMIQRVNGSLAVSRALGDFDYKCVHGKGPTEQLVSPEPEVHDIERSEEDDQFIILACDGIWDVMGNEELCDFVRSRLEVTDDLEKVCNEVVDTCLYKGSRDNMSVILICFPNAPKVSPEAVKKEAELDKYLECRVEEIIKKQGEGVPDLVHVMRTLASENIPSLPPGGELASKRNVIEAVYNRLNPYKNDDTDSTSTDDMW
UniProt Q92575: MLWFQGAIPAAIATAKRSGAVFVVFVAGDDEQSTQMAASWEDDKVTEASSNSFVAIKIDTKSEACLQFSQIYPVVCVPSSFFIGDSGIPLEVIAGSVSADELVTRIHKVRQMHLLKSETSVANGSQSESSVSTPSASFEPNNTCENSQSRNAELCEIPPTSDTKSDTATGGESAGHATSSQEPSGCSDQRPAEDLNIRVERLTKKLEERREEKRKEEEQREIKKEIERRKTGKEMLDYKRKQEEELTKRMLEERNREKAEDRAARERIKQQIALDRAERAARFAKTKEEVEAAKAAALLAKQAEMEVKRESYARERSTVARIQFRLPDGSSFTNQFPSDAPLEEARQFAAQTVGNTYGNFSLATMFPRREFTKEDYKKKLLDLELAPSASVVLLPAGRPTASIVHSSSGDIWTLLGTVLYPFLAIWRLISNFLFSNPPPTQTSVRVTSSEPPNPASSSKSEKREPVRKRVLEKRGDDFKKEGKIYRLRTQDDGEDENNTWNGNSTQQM
UniProt Q7Z6M1: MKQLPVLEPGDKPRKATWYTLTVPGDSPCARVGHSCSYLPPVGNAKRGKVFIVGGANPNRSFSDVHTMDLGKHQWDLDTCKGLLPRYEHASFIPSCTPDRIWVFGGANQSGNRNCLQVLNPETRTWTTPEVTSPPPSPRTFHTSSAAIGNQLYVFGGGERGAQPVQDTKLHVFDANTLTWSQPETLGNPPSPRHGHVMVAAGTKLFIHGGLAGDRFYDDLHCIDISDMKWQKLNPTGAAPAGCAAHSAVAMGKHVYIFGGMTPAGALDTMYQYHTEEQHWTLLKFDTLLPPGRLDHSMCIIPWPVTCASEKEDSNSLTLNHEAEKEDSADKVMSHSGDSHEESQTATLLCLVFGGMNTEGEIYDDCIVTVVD
UniProt Q15311: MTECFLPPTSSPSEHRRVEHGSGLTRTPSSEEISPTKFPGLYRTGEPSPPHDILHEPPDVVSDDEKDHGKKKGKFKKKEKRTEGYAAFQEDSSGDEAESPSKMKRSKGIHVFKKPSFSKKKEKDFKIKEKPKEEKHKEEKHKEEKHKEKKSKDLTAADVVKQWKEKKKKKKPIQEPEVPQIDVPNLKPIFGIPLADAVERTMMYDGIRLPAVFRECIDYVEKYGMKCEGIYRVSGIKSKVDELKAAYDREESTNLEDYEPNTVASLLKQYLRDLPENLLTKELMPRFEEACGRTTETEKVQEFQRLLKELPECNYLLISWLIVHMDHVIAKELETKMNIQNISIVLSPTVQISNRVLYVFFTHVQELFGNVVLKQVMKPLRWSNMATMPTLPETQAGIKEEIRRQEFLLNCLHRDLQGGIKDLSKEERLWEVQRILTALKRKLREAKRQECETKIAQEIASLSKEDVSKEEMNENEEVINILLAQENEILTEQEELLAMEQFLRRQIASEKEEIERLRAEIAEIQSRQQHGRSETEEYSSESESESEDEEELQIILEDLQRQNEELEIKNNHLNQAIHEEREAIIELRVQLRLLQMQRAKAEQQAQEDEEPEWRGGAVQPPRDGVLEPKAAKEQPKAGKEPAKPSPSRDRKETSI
UniProt Q15678: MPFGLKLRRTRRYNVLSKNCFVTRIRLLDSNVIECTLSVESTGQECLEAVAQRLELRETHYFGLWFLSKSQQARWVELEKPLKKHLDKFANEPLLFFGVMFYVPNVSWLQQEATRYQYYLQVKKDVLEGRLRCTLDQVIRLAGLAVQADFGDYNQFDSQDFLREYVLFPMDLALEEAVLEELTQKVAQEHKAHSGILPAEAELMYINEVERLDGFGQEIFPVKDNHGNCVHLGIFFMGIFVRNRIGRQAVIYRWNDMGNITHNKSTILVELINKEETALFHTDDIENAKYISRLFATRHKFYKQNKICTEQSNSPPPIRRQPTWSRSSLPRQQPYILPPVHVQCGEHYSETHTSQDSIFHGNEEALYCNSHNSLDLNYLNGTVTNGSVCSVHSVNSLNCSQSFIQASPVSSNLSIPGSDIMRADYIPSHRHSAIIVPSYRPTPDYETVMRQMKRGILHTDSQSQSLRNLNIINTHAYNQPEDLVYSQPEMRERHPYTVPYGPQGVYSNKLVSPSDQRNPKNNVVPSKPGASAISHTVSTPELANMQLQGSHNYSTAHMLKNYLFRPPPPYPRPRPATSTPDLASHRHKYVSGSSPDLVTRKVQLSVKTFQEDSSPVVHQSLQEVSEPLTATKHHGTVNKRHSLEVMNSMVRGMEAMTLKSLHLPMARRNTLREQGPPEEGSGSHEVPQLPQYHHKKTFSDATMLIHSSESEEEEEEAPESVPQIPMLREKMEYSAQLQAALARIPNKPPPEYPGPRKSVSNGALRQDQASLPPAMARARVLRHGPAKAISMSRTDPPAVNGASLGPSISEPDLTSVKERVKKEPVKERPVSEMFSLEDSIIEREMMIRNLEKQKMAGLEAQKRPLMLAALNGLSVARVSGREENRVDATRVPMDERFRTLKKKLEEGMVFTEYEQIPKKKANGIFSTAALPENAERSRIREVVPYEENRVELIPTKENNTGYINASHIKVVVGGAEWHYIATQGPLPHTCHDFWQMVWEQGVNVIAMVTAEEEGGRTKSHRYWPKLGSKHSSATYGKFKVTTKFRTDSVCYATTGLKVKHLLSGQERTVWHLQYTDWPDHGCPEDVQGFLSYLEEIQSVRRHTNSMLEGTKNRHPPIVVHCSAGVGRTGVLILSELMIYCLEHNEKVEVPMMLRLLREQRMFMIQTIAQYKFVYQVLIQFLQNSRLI
UniProt Q9NZT2: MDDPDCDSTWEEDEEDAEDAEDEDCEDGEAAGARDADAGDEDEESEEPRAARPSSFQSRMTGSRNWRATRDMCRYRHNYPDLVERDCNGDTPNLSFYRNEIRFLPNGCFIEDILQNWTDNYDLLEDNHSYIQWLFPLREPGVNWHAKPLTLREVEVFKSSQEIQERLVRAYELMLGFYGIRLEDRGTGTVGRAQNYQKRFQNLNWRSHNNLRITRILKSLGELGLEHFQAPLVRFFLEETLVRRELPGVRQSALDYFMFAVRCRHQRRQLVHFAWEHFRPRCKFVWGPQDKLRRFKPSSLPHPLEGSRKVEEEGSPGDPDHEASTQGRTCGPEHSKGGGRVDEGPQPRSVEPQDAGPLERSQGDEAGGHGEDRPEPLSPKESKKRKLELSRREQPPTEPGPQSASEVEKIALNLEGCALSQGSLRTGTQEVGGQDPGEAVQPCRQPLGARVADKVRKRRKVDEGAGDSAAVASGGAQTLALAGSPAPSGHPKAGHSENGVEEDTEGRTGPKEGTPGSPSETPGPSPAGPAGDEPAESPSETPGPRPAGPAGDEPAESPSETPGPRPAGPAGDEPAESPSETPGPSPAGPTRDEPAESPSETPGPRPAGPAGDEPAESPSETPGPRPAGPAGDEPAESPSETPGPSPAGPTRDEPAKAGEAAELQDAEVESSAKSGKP
UniProt Q9NRG9: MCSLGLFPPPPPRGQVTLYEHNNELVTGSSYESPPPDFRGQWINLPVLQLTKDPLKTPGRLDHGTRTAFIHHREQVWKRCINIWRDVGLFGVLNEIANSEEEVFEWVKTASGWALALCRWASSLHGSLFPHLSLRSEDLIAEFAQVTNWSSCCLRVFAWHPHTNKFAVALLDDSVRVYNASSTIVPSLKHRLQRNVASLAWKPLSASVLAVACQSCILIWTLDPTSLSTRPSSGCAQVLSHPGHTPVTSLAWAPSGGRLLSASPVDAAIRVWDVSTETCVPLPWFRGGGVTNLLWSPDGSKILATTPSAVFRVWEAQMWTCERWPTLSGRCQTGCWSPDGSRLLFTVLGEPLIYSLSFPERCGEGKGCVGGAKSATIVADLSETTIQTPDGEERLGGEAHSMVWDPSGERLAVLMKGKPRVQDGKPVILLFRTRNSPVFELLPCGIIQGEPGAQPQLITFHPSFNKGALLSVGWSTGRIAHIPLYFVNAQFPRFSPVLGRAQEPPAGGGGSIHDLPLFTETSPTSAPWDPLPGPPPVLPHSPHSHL

Compound: [O-][N+](C(C1=C(C(O)=C2)NC(C(C=C3)=CC=C3Cl)C4C1C=CC4)=C2Cl)=O
Assay: melting temperature shift (compound 7 minus DMSO); higher = compound stabilises the protein
Conditions: 10 µM
Description: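 Thermal proteome profiling (TMT mass spectrometry) in intact DAOY medulloblastoma cells or DAOY lysates treated with 10 µM compound 7 or DMSO, heated at 10 temperatures from 40.5 to 73.8 °C for 3 min. Melting curves were fitted with the Bioconductor TPP package, and the melting point difference between compound and vehicle is reported per protein (single curve per condition).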

[1] = system: DAOY cell lysate, treatment time: 20 min, 4 °C
[2] = system: intact DAOY cells, treatment time: 90 min, 37 °C

Target | melting temperature shift [1] [°C] | melting temperature shift [2] [°C]
HMGCL (UniProt P35914) | -0.122 | -0.285
NIPA2 (UniProt Q8N8Q9) |  | -0.499
UniProt Q96C23 | -0.587 | -0.195
DDX20 (UniProt Q9UHI6) | -0.448 | -0.672
OCIAD2 (UniProt Q56VL3) | 1.99 | 0.0232
UniProt Q9GZQ8 | -0.399 | -0.00167
P3H4 (UniProt Q92791) | -0.179 | 0.509
SAMD4B (UniProt Q5PRF9) | -0.13 | -1.47
CSTF3 (UniProt Q12996) | -0.334 | -0.358
TTI2 (UniProt Q6NXR4) | 0.0543 | -0.551
SLC44A1 (UniProt Q8WWI5) | 1.78 | 
APBB2 (UniProt Q92870) | -0.875 | 4.5
MYO1E (UniProt Q12965) | -0.929 | -0.901
JUNB (UniProt P17275) |  | -3.95
RRP1 (UniProt P56182) | 0.811 | 3.08
PPM1A (UniProt P35813) | -0.629 | 0.369
ARMC6 (UniProt Q6NXE6) | -1.05 | 0.402
UBXN4 (UniProt Q92575) | 1.26 | -0.779
UniProt P56282 | 0.253 | 
STT3B (UniProt Q8TCJ2) | 1.72 | -0.16
RABEPK (UniProt Q7Z6M1) | -1.07 | -0.549
EXT2 (UniProt Q93063) | 1.26 | 0.00852
CDC20 (UniProt Q12834) | -0.492 | -0.729
MCM5 (UniProt P33992) | -0.726 | -1.08

An excerpt of these results, as tab-separated lines:
Target	melting temperature shift [1] [°C]	melting temperature shift [2] [°C]
HMGCL (UniProt P35914)	-0.122	-0.285
NIPA2 (UniProt Q8N8Q9)		-0.499
UniProt Q96C23	-0.587	-0.195
DDX20 (UniProt Q9UHI6)	-0.448	-0.672
OCIAD2 (UniProt Q56VL3)	1.99	0.0232
UniProt Q9GZQ8	-0.399	-0.00167
P3H4 (UniProt Q92791)	-0.179	0.509
SAMD4B (UniProt Q5PRF9)	-0.13	-1.47
CSTF3 (UniProt Q12996)	-0.334	-0.358
TTI2 (UniProt Q6NXR4)	0.0543	-0.551
SLC44A1 (UniProt Q8WWI5)	1.78	

More entries.

Target | melting temperature shift [1] [°C] | melting temperature shift [2] [°C]
TOMM40 (UniProt O96008) | 3.83 | 
CYP2C19 (UniProt P33261) |  | 0.513
GMEB2 (UniProt Q9UKD1) | -1.84 | 
HINT2 (UniProt Q9BX68) | 0.588 | -0.458
RALBP1 (UniProt Q15311) | -0.455 | 1.01
P0DMN0 (UniProt P0DMM9) |  | 0.933
UniProt Q15678 | -0.174 | -0.409
PELP1 (UniProt Q8IZL8) | -0.116 | 0.0634
OGFR (UniProt Q9NZT2) | 0.0826 | 1.73
C5ORF51 (UniProt A6NDU8) | 0.115 | 1.48
TRABD (UniProt Q9H4I3) | 1.92 | 
POLR1E (UniProt Q9GZS1) | -0.83 | -1.97
UniProt Q9BTT4 | -1.82 | 
UniProt Q5T7M9 |  | -0.66
UniProt Q96J66 |  | -0.617
UniProt Q9HD47 | 3.94 | 
NDUFB8 (UniProt O95169) | 0.0157 | 0.813
ARFGAP2 (UniProt Q8N6H7) | -0.814 | -0.29
GCLC (UniProt P48506) | 0.208 | -0.0455
POLR3E (UniProt Q9NVU0) | 0.872 | 
AAAS (UniProt Q9NRG9) | 2 | 0.466
DHDDS (UniProt Q86SQ9) | 3.73 | 
TECR (UniProt Q9NZ01) | 0.271 | -2.05
